Measurements from article PMC3097230.
These are yes or no findings as the source states them, for the method shown. Binding seen in cells or lysates may run through a third protein. Binding calls can cover weak binding; strength is not graded here. Sequences can lack the tags named with a protein.

Molecular target: endogenous p130Cas (African green monkey (endogenous in Cos7))
Experiment: co-IP; Cos7 cells transfected with GFP-dynamin I, with or without 100 ng/ml EGF for the indicated times; lysate immunoprecipitated with anti-p130Cas antibody (Cas2), immunoblot with anti-GFP

B1: GFP-dynamin I (protein, UniProt Q05193 1-864)
chain: MGNRGMEDLIPLVNRLQDAFSAIGQNADLDLPQIAVVGGQSAGKSSVLENFVGRDFLPRGSGIVTRRPLVLQLVNATTEYAEFLHCKGKKFTDFEEVRLEIEAETDRVTGTNKGISPVPINLRVYSPHVLNLTLVDLPGMTKVPVGDQPPDIEFQIRDMLMQFVTKENCLILAVSPANSDLANSDALKVAKEVDPQGQRTIGVITKLDLMDEGTDARDVLENKLLPLRRGYIGVVNRSQKDIDGKKDITAALAAERKFFLSHPSYRHLADRMGTPYLQKVLNQQLTNHIRDTLPGLRNKLQSQLLSIEKEVEEYKNFRPDDPARKTKALLQMVQQFAVDFEKRIEGSGDQIDTYELSGGARINRIFHERFPFELVKMEFDEKELRREISYAIKNIHGIRTGLFTPDMAFETIVKKQVKKIREPCLKCVDMVISELISTVRQCTKKLQQYPRLREEMERIVTTHIREREGRTKEQVMLLIDIELAYMNTNHEDFIGFANAQQRSNQMNKKKTSGNQDEILVIRKGWLTINNIGIMKGGSKEYWFVLTAENLSWYKDDEEKEKKYMLSVDNLKLRDVEKGFMSSKHIFALFNTEQRNVYKDYRQLELACETQEEVDSWKASFLRAGVYPERVGDKEKASETEENGSDSFMHSMDPQLERQVETIRNLVDSYMAIVNKTVRDLMPKTIMHLMINNTKEFIFSELLANLYSCGDQNTLMEESAEQAQRRDEMLRMYHALKEALSIIGDINTTTVSTPMPPPVDDSWLQVQSVPAGRRSPTSSPTPQRRAPAVPPARPGSRGPAPGPPPAGSALGGAPPVPSRPGASPDPFGPPPQVPSRPNRAPPGVPSRSGQASPSRPESPRPPFDL
  binding: binds
